{"source": "PubChem BioAssay AID2685", "about": "(National Center for Advancing Translational Sciences (NCATS), 2010)", "test": "qHTS Assay for Lipid Storage Modulators in Drosophila S3 Cells;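 for cell number change: cells counted by Cell Tracker Red CMTPX staining in the red channel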", "conditions": "BODIPY lipid droplet fluorescence, 18-24 h; for cell number change: measured here: cell count max response, cells fed with added oleic acid", "how_it_was_run": "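Drosophila S3 cells got compounds at several concentrations plus oleic acid (400 uM solution). Laser-scanning cytometry with 488 nm excitation read lipid droplets at 500-530 nm and cells at 575-640 nm. Percent activity was relative to 20 uM Triacsin C.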", "key": {"[1]": {"conditions": "measured here: lipid fluorescence (Fed channel) AC50, cells fed with added oleic acid"}, "[2]": {"conditions": "measured here: cell number channel AC50, cells fed with added oleic acid"}}, "note": "The list shows a part of the results. These are further read-outs of the screen, such as a control signal, another cell line or another target. No call is given for them. The list favours compounds with an active or inconclusive main result. The note in brackets gives the kind of curve behind each potency; many fits are weak."}
{"smiles": "CC1CCN(S(=O)(=O)c2ccc(NC(=O)c3ccco3)cc2)CC1", "values": [{"measurement": "AC50", "setting": "[1]", "result": "29.1 µM [falling, single point]"}]}
{"smiles": "Cc1ccnc(NC(c2ccsc2)c2ccc3ccc(C)nc3c2O)c1", "note": "(centres undefined)", "values": [{"measurement": "cell number change", "result": -0.919, "unit": "%"}, {"measurement": "AC50", "setting": "[1]", "result": "0.82 µM [falling, single point]"}]}
{"smiles": "COc1ccc(CC2=CC(=O)c3ccccc3C2=O)cc1", "values": [{"measurement": "cell number change", "result": -58.1, "unit": "%"}, {"measurement": "AC50", "setting": "[2]", "result": "18.4 µM [falling, partial curve]"}, {"measurement": "AC50", "setting": "[1]", "result": "14.6 µM [falling, partial curve]"}]}
{"smiles": "O=c1[nH]c(=O)n([C@H]2C[C@H](O)[C@@H](CO)O2)cc1Br", "values": [{"measurement": "cell number change", "result": 20.8, "unit": "%"}, {"measurement": "AC50", "setting": "[1]", "result": "0.206 µM [rising, full curve]"}]}
{"smiles": "CC(=O)Nc1cc(NC(C)=O)cc(C(=O)OC(C)C(=O)Nc2ccc(S(=O)(=O)N3CCCC3)cc2)c1", "note": "(centres undefined)", "values": [{"measurement": "AC50", "setting": "[1]", "result": "29.1 µM [rising, single point]"}]}
{"smiles": "CCOC(=O)c1cccc(NC(=O)CCn2nnc3ccccc32)c1", "values": [{"measurement": "cell number change", "result": -9.45, "unit": "%"}, {"measurement": "AC50", "setting": "[1]", "result": "25.9 µM [rising, single point]"}]}
{"smiles": "NC(=O)Nc1ccc(C(=O)OCC(=O)Nc2ccc([N+](=O)[O-])cc2C(F)(F)F)cc1", "values": [{"measurement": "cell number change", "result": -19, "unit": "%"}, {"measurement": "AC50", "setting": "[2]", "result": "3.26 µM [falling, single point]"}, {"measurement": "AC50", "setting": "[1]", "result": "29.1 µM [falling, single point]"}]}
{"smiles": "Cc1nc(SCC(=O)Nc2nc3ccccc3s2)c(C#N)c(C)c1C", "values": [{"measurement": "cell number change", "result": -69.9, "unit": "%"}, {"measurement": "AC50", "setting": "[2]", "result": "29.1 µM [falling, single point]"}]}
{"smiles": "CSc1ccccc1NC(=O)CN(C)C(C)C(=O)NC(=O)NC1CCCCC1", "note": "(centres undefined)", "values": [{"measurement": "cell number change", "result": 13.7, "unit": "%"}]}
{"smiles": "Cn1c(=O)c2c(SCC(=O)Nc3ccccc3F)nc(C3CC3)nc2n(C)c1=O", "values": [{"measurement": "cell number change", "result": -8.08, "unit": "%"}, {"measurement": "AC50", "setting": "[1]", "result": "4.61 µM [falling, single point]"}]}
{"smiles": "COC(=O)[C@]1(Cc2ccccc2)N[C@H](c2ccc(-c3ccccc3)cc2)[C@@H]2C(=O)N(C)C(=O)[C@@H]21", "values": [{"measurement": "cell number change", "result": 18.5, "unit": "%"}]}
{"smiles": "NS(=O)(=O)c1ccc(CCNC(=O)c2cccc3ccccc23)cc1", "values": [{"measurement": "cell number change", "result": 8.4, "unit": "%"}, {"measurement": "AC50", "setting": "[1]", "result": "0.231 µM [rising, full curve, poor fit]"}]}
{"smiles": "CCOC(=O)C1CCCN(C(=O)CSc2ccccc2)C1", "note": "(centres undefined)", "values": [{"measurement": "cell number change", "result": -3.16, "unit": "%"}, {"measurement": "AC50", "setting": "[1]", "result": "20.6 µM [falling, partial curve, poor fit]"}]}
{"smiles": "COc1cccc(C2CC(c3c(-c4ccccc4)c4cc(Cl)ccc4[nH]c3=O)=NN2S(C)(=O)=O)c1OC", "note": "(centres undefined)", "values": [{"measurement": "cell number change", "result": -29.9, "unit": "%"}, {"measurement": "AC50", "setting": "[2]", "result": "2.91 µM [rising, single point]"}]}
{"smiles": "CCCCN(C(=O)CSc1n[nH]c(-c2ccc(C)cc2)n1)c1c(N)n(CCCC)c(=O)[nH]c1=O", "values": [{"measurement": "cell number change", "result": 2.94, "unit": "%"}, {"measurement": "AC50", "setting": "[1]", "result": "20.6 µM [falling, partial curve, poor fit]"}]}
{"smiles": "CCOC(=O)c1c(-c2ccc(C)s2)csc1NC(=O)c1cccs1", "values": [{"measurement": "cell number change", "result": 67.6, "unit": "%"}, {"measurement": "AC50", "setting": "[2]", "result": "0.146 µM [rising, full curve, poor fit]"}, {"measurement": "AC50", "setting": "[1]", "result": "1.03 µM [rising, full curve]"}]}
{"smiles": "O=C(NC1CCCCC1)c1cc(Cl)nc2ccccc12", "values": [{"measurement": "AC50", "setting": "[1]", "result": "29.1 µM [falling, single point]"}]}
{"smiles": "O=C(CCC(=O)Nc1ccccc1)NNC(=O)CCc1ccccc1", "values": [{"measurement": "cell number change", "result": -19.2, "unit": "%"}]}
{"smiles": "O=C(NCCOc1ccccc1Cl)c1cc(F)c(F)cc1Cl", "values": [{"measurement": "cell number change", "result": -0.972, "unit": "%"}, {"measurement": "AC50", "setting": "[1]", "result": "4.61 µM [falling, single point]"}]}
{"smiles": "COc1ccc(Nc2cc(Nc3ccc(OC)cc3)ncn2)cc1", "values": [{"measurement": "AC50", "setting": "[1]", "result": "0.58 µM [rising, single point]"}]}
{"smiles": "Cc1[nH]c(=O)nc2c1CCC2", "values": [{"measurement": "cell number change", "result": -0.456, "unit": "%"}, {"measurement": "AC50", "setting": "[2]", "result": "2.06 µM [rising, single point]"}]}
{"smiles": "CCn1c(SC(C)C)nnc1-c1cc(-c2ccccc2)sc1N", "values": [{"measurement": "cell number change", "result": -64.6, "unit": "%"}, {"measurement": "AC50", "setting": "[2]", "result": "9.2 µM [falling, partial curve]"}, {"measurement": "AC50", "setting": "[1]", "result": "5.8 µM [falling, partial curve]"}]}
{"smiles": "COc1cc(/C=C/C(=O)OCC(=O)NC(=O)NC(C)(C)C)ccc1OCC#N", "values": [{"measurement": "cell number change", "result": 25.6, "unit": "%"}, {"measurement": "AC50", "setting": "[1]", "result": "9.2 µM [rising, partial curve]"}]}
{"smiles": "COc1ccc2c(c1)sc1nc(-c3ccccc3)cn12", "values": [{"measurement": "cell number change", "result": -11, "unit": "%"}, {"measurement": "AC50", "setting": "[1]", "result": "1.16 µM [rising, single point]"}]}
{"smiles": "O=C(NCCN1C(=O)S/C(=C\\c2ccccc2F)C1=O)C1CC(=O)N(Cc2ccccc2)C1", "note": "(centres undefined)", "values": [{"measurement": "cell number change", "result": -4.68, "unit": "%"}]}
{"smiles": "Cc1ccc(OCCN2CCCC2)cc1", "values": [{"measurement": "cell number change", "result": 1.66, "unit": "%"}, {"measurement": "AC50", "setting": "[1]", "result": "0.58 µM [rising, single point]"}]}
{"smiles": "O=C(Nc1ccccc1)c1ccc(Nc2c([N+](=O)[O-])cc([N+](=O)[O-])c3ccccc23)cc1", "values": [{"measurement": "cell number change", "result": -29.7, "unit": "%"}]}
{"smiles": "C=CCN(CC=C)C(=O)COC(=O)c1n[nH]c2ccccc12", "values": [{"measurement": "cell number change", "result": 59.7, "unit": "%"}, {"measurement": "AC50", "setting": "[2]", "result": "18.4 µM [rising, single point]"}]}
{"smiles": "Cn1cc([N+](=O)[O-])c(C(=O)NCC(=O)O)n1", "values": [{"measurement": "cell number change", "result": -25.7, "unit": "%"}, {"measurement": "AC50", "setting": "[2]", "result": "0.164 µM [rising, full curve, poor fit]"}]}
{"smiles": "O=S(=O)(c1ccc(Br)cc1)N1CCCN(Cc2ccccc2F)CC1", "values": [{"measurement": "cell number change", "result": 32, "unit": "%"}, {"measurement": "AC50", "setting": "[2]", "result": "20.6 µM [rising, single point]"}]}
{"smiles": "COc1ccc(OC)c(NC(=O)c2c3c(nc4ccccc24)CCC3)c1", "values": [{"measurement": "cell number change", "result": 2.59, "unit": "%"}]}
{"smiles": "O=C(Nc1ccccc1C(F)(F)F)C(O)(c1ccccc1)C1CCCCC1", "note": "(centres undefined)", "values": [{"measurement": "cell number change", "result": -8.47, "unit": "%"}, {"measurement": "AC50", "setting": "[1]", "result": "0.411 µM [falling, full curve]"}]}
{"smiles": "Cc1cccc(NC(=O)c2cc(-c3ccccn3)nc3ccccc23)c1C", "values": [{"measurement": "cell number change", "result": 72.6, "unit": "%"}]}
{"smiles": "Cc1ccccc1OCc1nc2ccccc2c(=O)n1/N=C/c1cn[nH]c1-c1ccc(Br)cc1", "values": [{"measurement": "AC50", "setting": "[2]", "result": "0.82 µM [falling, full curve]"}]}
{"smiles": "CCn1c(SCC(=O)N2CCc3ccccc32)nnc1-c1ccco1", "values": [{"measurement": "cell number change", "result": -12, "unit": "%"}, {"measurement": "AC50", "setting": "[1]", "result": "13 µM [falling, partial curve, poor fit]"}]}
{"smiles": "OCc1nc2nc(Cl)c(Cl)nc2[nH]1", "values": [{"measurement": "cell number change", "result": -48.5, "unit": "%"}, {"measurement": "AC50", "setting": "[2]", "result": "14.6 µM [falling, partial curve]"}, {"measurement": "AC50", "setting": "[1]", "result": "25.9 µM [falling, partial curve]"}]}
{"smiles": "Cc1ccc(C)c(OCC(=O)Nc2ccccc2N2CCCC2)c1", "values": [{"measurement": "cell number change", "result": 27.8, "unit": "%"}, {"measurement": "AC50", "setting": "[1]", "result": "29.1 µM [rising, single point]"}]}
{"smiles": "O=C(NCC(c1ccco1)N1CCCC1)c1cccc(S(=O)(=O)N2CCOCC2)c1", "note": "(centres undefined)", "values": [{"measurement": "cell number change", "result": 14.9, "unit": "%"}, {"measurement": "AC50", "setting": "[1]", "result": "1.46 µM [falling, full curve, poor fit]"}]}
{"smiles": "CC(=O)NCCc1c(C)n(Cc2ccccc2)c2ccccc12", "values": [{"measurement": "cell number change", "result": -5.49, "unit": "%"}, {"measurement": "AC50", "setting": "[1]", "result": "6.51 µM [falling, single point]"}]}
{"smiles": "CC(=O)Nc1c(C(=O)O)[nH]c2ccccc12", "values": [{"measurement": "cell number change", "result": -45.3, "unit": "%"}, {"measurement": "AC50", "setting": "[2]", "result": "0.731 µM [falling, full curve, poor fit]"}, {"measurement": "AC50", "setting": "[1]", "result": "13 µM [falling, partial curve]"}]}
